Not every detail of the peptide structures is certain; ends, links or a residue may be inferred. No end group written: not given here.
Biological target: T1, M2pd (Homo sapiens, UniProt P56817)
T1 construct: Pro-memapsin 2 residues start at residue Ala-16; The two recombinant pro-memapsin 2s have different C-terminal lengths; Clone T1 ends at Thr-456; made in house
Assay: Hydrolysis of synthetic peptide substrates by M2pd, kinetics by HPLC
Type: biochemical
Details: P2 Asn and P1 Leu instead of Lys and Met
Text: A synthetic peptide derived from this site (SEVKM/DAEFR) (SEQ ID NO:4) was hydrolyzed by M2pd at the beta-secretase site (marked by /). A second peptide (SEVNL/DAEFR) (SEQ ID NO:5) derived from the APP beta-secretase site and containing the ‘Swedish mutation’ (Mullan, M. et al., Nature Genet. 2:340-342 (1992)), known to elevate the level of alpha-beta production in cells (Citron, M. et al., Nature […] (1992)), was hydrolyzed by M2pd with much higher catalytic efficiency. Both substrates were optimally cleaved at pH 4.0. A peptide derived from the processing site of presenilin 1 (SVNM/AEGD) (SEQ ID NO:6) was also cleaved by M2pd with less efficient kinetic parameters. […]
Incubation in 0.1 M sodium acetate, pH 4.0, for 16 h at 22° C. auto-catalytically converted pro-M2pd to M2pd. […] For kinetic studies, the identified HPLC (Beckman System Gold) product peaks were integrated for quantitation. The Km and kcat values for presenilin 1 and Swedish APP peptides (Table 1) were measured by steady-state kinetics. The individual Km and kcat values for APP peptide could not be measured accurately by standard methods, so its kcat/Km value was measured by competitive hydrolysis of mixed substrates against presenilin 1 peptide (Fersht, A. “Enzyme Structure and Mechanism”, 2nd Ed., W.H. Freeman and Company, New York. (1985)).

The chains behind the UniProt entries cited, without tags or fusion partners. Residues count along the entry.
UniProt P56817, 14-454: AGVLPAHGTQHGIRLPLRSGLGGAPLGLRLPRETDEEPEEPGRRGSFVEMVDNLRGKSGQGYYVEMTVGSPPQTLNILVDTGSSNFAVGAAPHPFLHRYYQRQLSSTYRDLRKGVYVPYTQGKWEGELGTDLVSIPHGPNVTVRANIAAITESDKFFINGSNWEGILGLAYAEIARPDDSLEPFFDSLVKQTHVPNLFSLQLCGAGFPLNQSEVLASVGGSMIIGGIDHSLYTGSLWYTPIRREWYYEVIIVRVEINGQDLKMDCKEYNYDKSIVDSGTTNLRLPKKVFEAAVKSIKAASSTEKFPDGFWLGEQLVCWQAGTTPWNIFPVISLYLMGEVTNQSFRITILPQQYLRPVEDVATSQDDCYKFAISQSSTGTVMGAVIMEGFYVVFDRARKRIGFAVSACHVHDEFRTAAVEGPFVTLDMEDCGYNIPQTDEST

SEVNLDAEFR [Swedish APP peptide, SEVNL/DAEFR]
fold increase of Kcat/Km over native APP: 60 fold
